Source: patent publication US9625458B2, “Biosensor” (priority 2002, dated 2017)

Experiment: Fluorescence emission spectra without and with saturating ligand (wavelength shift, ΔIstd, ΔRmax)
Settings: for λmax,apo (nm): absence of ligand; for ΔIstd: standard intensity change; for ΔIstd / ΔRmax: unbound vs ligand-saturated; for ΔRmax: standard ratiometric change
Procedure: Fluorimetry. All measurements were conducted with an SLM Aminco-Bowman series 2 fluorimeter, with sample stirring at 25° C. Fluorescence emission spectra were acquired with excitation and emission slit widths of 4 and 8 nm, respectively. Photomultiplier tube potential was maintained between 400 and 800 volts. Protein concentrations were in the range of 50 to 1000 nM. Fluorophore-specific excitation was at the following approximate wavelengths: tryptophan, 290 nm; acrylodan, 390 nm; fluorescein, 485 nm; pyrene, 340 nm; NBD and NBDE, 490 nm; JPW4039, 485 nm; JPW4042, 470 nm; JPW4045, 470 nm.
Assessment of fluorescent biosensor function. Fluorescence emission spectra of bPBP-fluorophore conjugates were recorded in the absence and presence of saturating ligand concentrations. Spectral changes were characterized by four parameters: wavelength shift (the difference between the wavelengths of emission maximum in the unbound and ligand-saturated states), direction of intensity change (increase or decrease in intensity at the wavelengths of maximum emission in the two states), standard intensity change (ΔIstd), and standard ratiometric change (ΔR). ΔIstd is defined as the normalized intensity change relative to the average intensity, determined at the wavelength mid-point between the two emission maxima:
[formula] where λstd=(λmax, unbound+λmax, saturated)/2 and I1, I2 are the fluorescence intensities at λstd of each spectrum respectively (FIG. 4A). ΔR is defined in terms of two emission bands, A1 ([λ1, λ2]) and A2 ([λ3, λ4]) (FIG. 4B):
[formula] where ^∘A1, […] the areas in the absence of ligand, and ^∞A1, ^∞A2 the areas in the presence of saturating ligand. A computer program was used to enumerate ΔR for all possible pairs of wavelength bands in the two spectra, to identify the optimal sensing condition, defined as the maximum value of ΔR. Adjustable parameters of the algorithm, and their values used for ΔRmax quantities reported here, are: step size (2 nm), step width (10 nm), minimum integration area limit (fraction of total: 0.1), and maximum integration area limit (fraction of total: 1).

[1] = emission maximum, saturating ligand (ligand column)
[2] = wavelength of emission maximum, saturating ligand

Substance | λmax,apo (nm) (emission maximum) | λmax,sat (nm) [1] | ΔIstd | ΔRmax | ΔRmax (maximum standard ratiometric change) (apo vs saturating ligand, optimal pair of emission bands) | λmax,apo (nm) (wavelength of emission maximum) | λmax,sat (nm) [2]
glucose BP W183C Acrylodan | 483 | 504 | 0.73 | 5.57 |  |  | 
glucose BP W183C Fluorescein | 525 | 521 | 0.10 | 1.16 |  |  | 
glucose BP W183C NBD | 547 | 546 | 0.13 | 0.14 |  |  | 
glucose BP W183C-acrylodan: glucose BP endosteric-site W183C mutant conjugated to acrylodan |  |  |  |  | 5.57 |  | 
glucose BP Y10C Fluorescein | 521 | 521 | 0.43 | 1.22 |  |  | 
sulfate BP L65C Pyrene |  |  |  |  |  | 386 | 385
sulfate BP Q294C Pyrene |  |  |  |  |  | 384 | 384
sulfate BP R134C Pyrene |  |  |  |  |  | 382 | 386
sulfate BP W290C Pyrene |  |  |  |  |  | 384 | 384
sulfate BP Y67C Pyrene |  |  |  |  |  | 383 | 383
